Measurements reported in PubChem BioAssay AID1224830 (NIAID, 2016).
The deposit covers about 18,000 reagents; below is a random part of them. In the full data, about 2,900 (16%) were called active. 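Calls are made per well; low scores hint the gene aids the LPS response, high scores that it dampens it.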 Repeated entries: four replicate wells of each siRNA pool. Reagent sequences are not shown.

- Purpose: 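Genes whose knock-down alters the TNF-alpha reporter response to LPS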 (primary screen)
- Cell system: human THP-1 monocytic leukaemia cells, TNF dual-luciferase reporter clone, PMA-differentiated to macrophage-like cells
- Reagents: siRNA pool against human genes, 50 nM
- Timing: LPS for 4 h, given about 3 days after siRNA transfection
- Treatment: bacterial LPS (TLR4 ligand), 10 ng/ml
- Read-out: 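TNF firefly reporter luminescence divided by renilla, normalised to the plate median, then turned into a robust z-score for each replicate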
- Direction: TNF reporter robust z-score: higher = stronger TNF reporter response to LPS
- Active means: 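a well is active when its z-score exceeds 2.8 or falls below -1.5; control wells carry no call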

gene symbol | TNF reporter robust z-score | Outcome
MGA (GeneID 23269) | 1.95 | inactive
MGA (GeneID 23269) | 0.17 | inactive
MGA (GeneID 23269) | 0.33 | inactive
MGA (GeneID 23269) | -0.48 | inactive
OR2L8 (GeneID 391190) | -0.39 | inactive
OR2L8 (GeneID 391190) | -1.03 | inactive
OR2L8 (GeneID 391190) | -0.75 | inactive
OR2L8 (GeneID 391190) | -0.14 | inactive
CHRAC1 (GeneID 54108) | -0.82 | inactive
CHRAC1 (GeneID 54108) | 1.25 | inactive
CHRAC1 (GeneID 54108) | -0.93 | inactive
CHRAC1 (GeneID 54108) | 0.05 | inactive
SLC16A1 (GeneID 6566) | -0.12 | inactive
SLC16A1 (GeneID 6566) | -0.65 | inactive
SLC16A1 (GeneID 6566) | -1.17 | inactive
SLC16A1 (GeneID 6566) | -0.82 | inactive
EXOC7 (GeneID 23265) | -0.58 | inactive
EXOC7 (GeneID 23265) | -1.03 | inactive
EXOC7 (GeneID 23265) | -1.28 | inactive
EXOC7 (GeneID 23265) | -0.59 | inactive
C4B (GeneID 721) | -0.43 | inactive
C4B (GeneID 721) | -0.63 | inactive
C4B (GeneID 721) | -0.45 | inactive
C4B (GeneID 721) | 0.25 | inactive

Next part, starting with the last 2 of the part before.
gene symbol | TNF reporter robust z-score | Outcome
C4B (GeneID 721) | -0.45 | inactive
C4B (GeneID 721) | 0.25 | inactive
GPD2 (GeneID 2820) | 0.1 | inactive
GPD2 (GeneID 2820) | 0.45 | inactive
GPD2 (GeneID 2820) | 0.65 | inactive
GPD2 (GeneID 2820) | 0.8 | inactive
TBXAS1 (GeneID 6916) | 0.82 | inactive
TBXAS1 (GeneID 6916) | 2.13 | inactive
TBXAS1 (GeneID 6916) | 1.46 | inactive
TBXAS1 (GeneID 6916) | 0.45 | inactive
CPNE6 (GeneID 9362) | 0.32 | inactive
CPNE6 (GeneID 9362) | 0.71 | inactive
CPNE6 (GeneID 9362) | 0.8 | inactive
CPNE6 (GeneID 9362) | -0.21 | inactive
POM121 (GeneID 9883) | -0.51 | inactive
POM121 (GeneID 9883) | -0.17 | inactive
POM121 (GeneID 9883) | -0.59 | inactive
POM121 (GeneID 9883) | -0.68 | inactive
CMC2 (GeneID 56942) | 0.21 | inactive
CMC2 (GeneID 56942) | -0.92 | inactive
CMC2 (GeneID 56942) | -0.5 | inactive
CMC2 (GeneID 56942) | -0.18 | inactive
AIF1 (GeneID 199) | -0.71 | inactive
AIF1 (GeneID 199) | -0.31 | inactive
AIF1 (GeneID 199) | -0.47 | inactive
AIF1 (GeneID 199) | 0.2 | inactive
